Data: publication PMC3741289
No constants are given. Whether binding was seen depends on the method and setting. For some of these results: Binding seen in cells or lysates may run through a third protein. Some entries that bind do so weakly or less than the wild type.

The chains behind the UniProt entries cited, without tags or fusion partners.
UniProt P04792: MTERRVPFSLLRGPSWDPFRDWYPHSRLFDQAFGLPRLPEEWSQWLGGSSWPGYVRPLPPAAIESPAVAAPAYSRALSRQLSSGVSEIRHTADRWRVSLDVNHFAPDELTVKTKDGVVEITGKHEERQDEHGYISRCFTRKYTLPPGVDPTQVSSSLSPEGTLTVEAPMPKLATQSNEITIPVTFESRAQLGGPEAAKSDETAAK

Legend:
[1] = target: T1, R120G mutant HspB5 (αB-crystallin) (human) (UniProt P02511); test: SEC; cells treated for 2 h with 60 µM menadione before lysis; 10,000×g supernatant on Sepharose 6B in TEM buffer; fractions immunoblotted
T1 sequence: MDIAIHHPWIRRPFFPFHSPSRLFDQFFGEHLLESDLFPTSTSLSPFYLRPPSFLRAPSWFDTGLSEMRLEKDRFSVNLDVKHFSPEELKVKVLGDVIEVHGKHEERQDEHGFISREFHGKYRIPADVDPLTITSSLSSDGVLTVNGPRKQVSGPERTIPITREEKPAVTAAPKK

[2] = target: T2, R120G mutant HspB5 phosphorylated at serine 19 (human) (UniProt P02511); test: SEC; untreated Neo, WT or R120G HeLa cells lysed in TEM buffer with 0.1% Triton X-100; 10,000×g supernatant on a Sepharose 6B column (1×100 cm) in TEM buffer (20 mM Tris-HCl pH 7.4, 20 mM NaCl, 5 mM MgCl2, 0.1 mM EDTA); pooled fractions immunoblotted
T2 sequence (chain, phosphoserine at 19): T1 sequence

[3] = target: T3, R120G mutant HspB5 phosphorylated at serine 45 (human) (UniProt P02511); test: as above
T3 sequence (chain, phosphoserine at 45): T1 sequence

[4] = target: T4, R120G mutant HspB5 phosphorylated at serine 59 (human) (UniProt P02511); test: as above
T4 sequence (chain, phosphoserine at 59): T1 sequence

[5] = target: T1, R120G mutant HspB5 (αB-crystallin) (human); test: as above
[6] = target: T1, R120G mutant HspB5 (αB-crystallin) (human); test: co-IP; pooled gel filtration fractions (pool I of WT cells, pool II of R120G cells) with anti-HspB1 or anti-HspB5 antibody, 4 h at 4°C, protein G sepharose; washes in IPP150 (20 mM Tris-HCl pH 8, 150 mM NaCl, 0.05% NP-40); immunoblot of total, precipitate and depleted supernatant
[7] = target: T1, R120G mutant HspB5 (αB-crystallin) (human); test: SEC; cells treated with hydrogen peroxide; data not shown
[8] = target: T2, R120G mutant HspB5 phosphorylated at serine 19 (human); test: SEC; cells treated for 2 h with 60 µM menadione before lysis; 10,000×g supernatant on Sepharose 6B in TEM buffer; fractions immunoblotted
[9] = target: T3, R120G mutant HspB5 phosphorylated at serine 45 (human); test: as above
[10] = target: T4, R120G mutant HspB5 phosphorylated at serine 59 (human); test: as above

HspB1 phosphorylated at serine 82 (from UniProt P04792 1-205)
binding [1]: binds weakly

HspB1 phosphorylated at serine 15 (from UniProt P04792 1-205)
binding [1]: binds weakly

HspB1 (Hsp27) (from UniProt P04792 1-205)
binding [2]: binds
binding [3]: binds
binding [4]: binds
binding [5]: binds
binding [6]: binds
binding [7]: binds weakly
binding [8]: binds weakly
binding [9]: binds weakly
binding [10]: binds weakly
binding [1]: binds weakly

HspB1 phosphorylated at serine 78 (from UniProt P04792 1-205)
binding [1]: binds weakly
